Data as given in PubChem BioAssay AID602313 (National Center for Advancing Translational Sciences (NCATS), 2012).
The campaign covered roughly 390,000 compounds. About 760 (0.19%) were called active. The inconclusive results got no clear call from the source; some entries with a clear call stand among them for comparison. Calls follow the shape of the dose curve; as a rule, active = well fitted inhibition curve with a large enough effect; inconclusive = small, poorly fitted or top-dose-only effect; inactive = flat fitted curve, though single readings scatter. A potency beside an inconclusive call is a rough fit, not a confirmed value.

Assay: qHTS for Inhibitors of Vif-A3F Interactions: qHTS; also: nearly all actives have a fitted effect of over 65% in size
Conditions: HeLa A3F-eYFP + Vif (tagged APOBEC3F with the HIV-1 protein that degrades it), YFP fluorescence increase; series mostly up to 46.1 µM
How it was run: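 Fluorescence increase (Ex 488/Em 500-530) after overnight compound treatment at 37 deg C flags inhibition of Vif-driven A3F-eYFP loss in stable HeLa A3F-eYFP/Vif cells seeded overnight beforehand.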
Potency is read from the fitted curve at half-maximal effect.

Row | Structure (SMILES) | Potency
1 | N#CC(C#N)=C1C=CC=CN1/C(=C\c1ccco1)C(=O)c1ccc(Br)cc1 | inconclusive: 10 µM [inhibitor, partial curve, poor fit]
2 | Cc1ccc(S(=O)(=O)N2CCCN(S(=O)(=O)c3ccc(C)c(C)c3)CC2)cc1C | inactive
3 | CCN1CCCC(Sc2nc3c([nH]2)c(=S)n(C)c(=O)n3C)C1 (stereo not drawn) | inconclusive: 22.4 µM [inhibitor, partial curve, poor fit]
4 | CCc1ccccc1NC(=O)C(=O)NCC(c1cccnc1)N1CCc2ccccc21 (stereo not drawn) | inactive
5 | COc1ccc(S(=O)(=O)N2CCN(Cc3cc(OC)c(O)c(OC)c3)CC2)cc1 | inactive
6 | CCN(CC)CCOC(=O)c1ccc(Cl)cc1Cl | inconclusive: 5.01 µM [inhibitor, partial curve, poor fit]
7 | COc1ccc(S(=O)(=O)N2CCOC23CCN(S(=O)(=O)c2ccc([N+](=O)[O-])cc2)CC3)cc1 | inconclusive: 35.5 µM [inhibitor, single point]
8 | Nc1ccccc1-n1cccc1 | inconclusive: 35.5 µM [inhibitor, single point]
9 | COc1ccc(N2CCN(C(=O)c3ccc(Nc4nc5ccccc5n5nnnc45)cc3)CC2)cc1 | inconclusive: 3.98 µM [inhibitor, full curve]
10 | Fc1ccccc1-c1n[nH]c(=S)n1/N=C/c1c[nH]c2ccccc12 | inconclusive: 0.562 µM [inhibitor, partial curve, poor fit]
11 | Cc1csc(=O)n1CC(=O)OC(C)C(=O)Nc1ccc(F)c(F)c1F (stereo not drawn) | inactive
12 | CCOC(=O)CC1C(=O)NCCN1S(=O)(=O)c1cccc(C(F)(F)F)c1 (stereo not drawn) | inconclusive: 0.562 µM [inhibitor, full curve, poor fit]
13 | Cc1sc(NC(=O)c2sc3nc4c(C)cccc4cc3c2N)c(C#N)c1C | inconclusive: 14.1 µM [inhibitor, partial curve, poor fit]
14 | CC[C@H](C)/C=C/C1=CC2=C(Cl)C(=O)[C@@]3(C)OC(=O)C(C(=O)[C@H](C)[C@@H](C)O)=C3C2=CO1 | inconclusive: 20 µM [inhibitor, single point]
15 | Cc1c(NC(=O)C(F)(F)F)ccc2nc3c(=O)n(C)c(=O)n(C)c3nc12 | inconclusive: 28.2 µM [inhibitor, single point]
16 | CC1(C)CC(=O)C2=C(C1)c1c(ccc3ccccc13)NC2c1cc([N+](=O)[O-])cc([N+](=O)[O-])c1O (stereo not drawn) | inconclusive: 3.16 µM [inhibitor, full curve, poor fit]
17 | N#Cc1ccc(/C=C\c2nccc3c2[nH]c2ccccc23)cc1 | inconclusive: 11.2 µM [inhibitor, partial curve, poor fit]
18 | NC(=S)N/N=C1\CCOc2ccc(F)cc21 | inconclusive: 28.2 µM [inhibitor, single point]
19 | Cc1cc2nc(SCC(=O)Nc3nonc3C)c3c(c2cc1C)CCCC3 | inactive
20 | CCOC(=O)N1CCC(NC(=O)C2CCCN(c3nc4ccccc4o3)C2)CC1 (stereo not drawn) | inconclusive: 12.6 µM [inhibitor, single point]
21 | COc1ccc(OC)c(Nc2nc(N)nc(CCl)n2)c1 | inactive

4 compounds from above, arranged by formula weight, descending.
Row | Structure (SMILES) | Potency
7 | COc1ccc(S(=O)(=O)N2CCOC23CCN(S(=O)(=O)c2ccc([N+](=O)[O-])cc2)CC3)cc1 | inconclusive: 35.5 µM [inhibitor, single point]
12 | CCOC(=O)CC1C(=O)NCCN1S(=O)(=O)c1cccc(C(F)(F)F)c1 (stereo not drawn) | inconclusive: 0.562 µM [inhibitor, full curve, poor fit]
17 | N#Cc1ccc(/C=C\c2nccc3c2[nH]c2ccccc23)cc1 | inconclusive: 11.2 µM [inhibitor, partial curve, poor fit]
8 | Nc1ccccc1-n1cccc1 | inconclusive: 35.5 µM [inhibitor, single point]

Additional structures follow:

Row | Structure (SMILES) | Potency
22 | CCc1ccc(NC(=O)Cn2nnc(C(=O)Nc3ccc(F)cc3)c2N)cc1 | inconclusive: 35.5 µM [inhibitor, single point]
23 | CCOc1ccc(S(=O)(=O)Nc2nc3ccccc3nc2-n2ccc(=NC(=O)c3ccccc3C)cc2)cc1 | inconclusive: 35.5 µM [inhibitor, single point]
24 | Nc1ccccc1C(=O)NNC1=C(C(=O)C(F)(F)F)CCC1 | inconclusive: 15.8 µM [inhibitor, single point]
25 | Fc1ccc(C(c2ccc(F)cc2)N2CCN(C/C=C/c3ccccc3)CC2)cc1 | inconclusive: 35.5 µM [inhibitor, single point]
26 | COc1cccc(NC(=O)c2sc3nc(C)c(C(=O)Nc4ccc(C)cc4C)c(-c4ccc(C)o4)c3c2N)c1 | inconclusive: 35.5 µM [inhibitor, single point]
27 | Cc1ccc(O)c(Nc2c3ccccc3nc3ccccc23)c1 | inconclusive: 3.98 µM [inhibitor, partial curve]
28 | COc1ccc(C(=O)NNC(=O)c2ccncc2)cc1[N+](=O)[O-] | inconclusive: 35.5 µM [inhibitor, single point]
29 | COc1ccc(C=NNC(=S)Nc2ccc(F)cc2)cc1OC | inconclusive: 6.31 µM [inhibitor, single point]
30 | COCCN(C(=O)COC(=O)Cc1cccc(OC)c1)c1c(N)n(Cc2ccccc2)c(=O)[nH]c1=O | inconclusive: 35.5 µM [inhibitor, single point]
31 | CCN(CC)c1ccc(S(=O)(=O)N2CCOCC2)cc1NC(=O)C1CC1 | inactive
32 | Cc1ccc(N/N=C(/Sc2nnnn2-c2ccccc2)C(=O)c2ccccc2)cc1 | inconclusive: 22.4 µM [inhibitor, single point]
33 | S=C(Nc1ccccn1)Nc1ccccc1Cl | inconclusive: 20 µM [inhibitor, partial curve, poor fit]
34 | COc1ccc(CN2CCC(N(CCc3ccccc3)Cc3ccccc3)CC2)c(OC)c1 | inconclusive: 11.2 µM [inhibitor, single point]
35 | CC(Nc1nc(-c2ccc(F)cc2)cs1)c1nc2cc(Cl)c(Cl)cc2n1CCCO (stereo not drawn) | inconclusive: 35.5 µM [inhibitor, single point]
36 | Cc1ccc(NN=C2c3ccccc3-c3ccccc32)cc1 | inconclusive: 35.5 µM [inhibitor, single point]
37 | Cc1cc(NC(=O)CSc2ccc(-c3nc4cc(C)c(C)cc4[nH]3)cn2)no1 | inconclusive: 20 µM [inhibitor, partial curve, poor fit]
38 | CCS(=O)(=O)C1=NN2C(=N)/C(=C\c3ccc(SCc4ccco4)o3)C(=O)N=C2S1 | inconclusive: 11.2 µM [inhibitor, partial curve]
39 | Cc1ccccc1CCN1CCCC(CN(C)C(=O)c2ccc3ncccc3c2)C1 (stereo not drawn) | inconclusive: 6.31 µM [inhibitor, single point]
40 | CCOc1ccc(C(C(=O)NCC2CCCO2)N(Cc2ccccc2)C(=O)c2snc(C(N)=O)c2N)cc1 (stereo not drawn) | inconclusive: 28.2 µM [inhibitor, single point]
41 | Cn1c(OCc2ccco2)nc2c1c(=O)n(Cc1ccc(Cl)c(Cl)c1)c(=O)n2C | inactive
42 | c1ccc(OCCn2c(-c3ccco3)nc3ccccc32)cc1 | inactive

Row | Structure (SMILES) | Potency
43 | Cc1ccc(C(=O)Nc2nnc(S(=O)(=O)N(C)Cc3ccc(F)cc3)s2)cc1 | inactive
44 | Cc1nc(NS(=O)(=O)c2ccccc2)sc1NC(=O)Nc1ccccc1 | inconclusive: 35.5 µM [inhibitor, single point]
45 | COc1ccc(-c2ccc(-c3noc(-c4cc(OC)cc(OC)c4)n3)c(OC)n2)cc1 | inactive
46 | CC1CCCCC12NC(=O)N(CC(=O)OCc1ccccc1Cl)C2=O (stereo not drawn) | inconclusive: 35.5 µM [inhibitor, partial curve, poor fit]
47 | O=C1/C(=C\c2cccs2)Sc2ccc3ccccc3c21 | inconclusive: 31.6 µM [inhibitor, single point]
48 | CCCCOC(=O)c1ccc(NC(=S)N2CCN(c3ncc4c(=O)c(C(=O)O)cn(CC)c4n3)CC2)cc1 | inactive
49 | COc1ccc(C(=O)/C=C/Nc2ccc(S(=O)(=O)Nc3cc(OC)nc(OC)n3)cc2)c(OC)c1 | inconclusive: 7.94 µM [inhibitor, partial curve, poor fit]
50 | COc1ccc([N+](=O)[O-])cc1NC(=O)CCN1CCN(C)CC1 | inconclusive: 2.24 µM [inhibitor, partial curve, poor fit]
51 | C=CCc1c(C)nc(-c2ccccc2)nc1Nc1ccccc1O | active: 22.4 µM
52 | CC1(C)CC(=O)C(C(C2=C(O)CC(C)(C)CC2=O)c2ccc([N+](=O)[O-])cc2)C(=O)C1 (stereo not drawn) | inactive
53 | CC(=O)Nc1cc2c3ccccc3ccc2c2ccccc12 | inconclusive: 12.6 µM [inhibitor, partial curve, poor fit]
54 | O=C([C@@H]1CCCN1C(=O)c1cccs1)N1CCN(S(=O)(=O)c2cccc(F)c2)CC1 | inconclusive: 0.631 µM [inhibitor, full curve, poor fit]
55 | Cc1onc(-c2ccccc2Cl)c1C(=O)NC(=S)Nc1ccccc1F | inconclusive: 11.2 µM [inhibitor, single point]
56 | COc1ccccc1NCc1cccn1-c1nnc(N2CCOCC2)s1 | inactive
57 | COc1ccc(C(=O)COC(=O)c2ccc3c(c2)NC(=O)CS3)c(OC)c1 | inconclusive: 22.4 µM [inhibitor, single point]
58 | O=C(Oc1cccc2cccnc12)c1ccc(N2C(=O)C3C4CCC(C4)C3C2=O)cc1 (stereo not drawn) | inconclusive: 3.16 µM [inhibitor, partial curve, poor fit]
59 | O=C(Cc1ccccc1F)NCC(c1ccco1)N1CCCCC1 (stereo not drawn) | inconclusive: 8.91 µM [inhibitor, partial curve, poor fit]
60 | Cn1c(CN2CCCC2)nc2cc(NC(=O)COc3ccccc3)ccc21 | inactive
61 | CCC(C(=O)NCc1ccco1)N(C(=O)CNS(=O)(=O)c1ccc(C)cc1)c1ccccc1F (stereo not drawn) | inconclusive: 2.51 µM [inhibitor, partial curve, poor fit]
62 | COc1ccc(C(CC(=O)O)c2ccc3c(c2)OCO3)cc1 (stereo not drawn) | inactive
63 | CCCOc1cccc(C2C(C(=O)c3cc4ccccc4o3)=C(O)C(=O)N2c2cc(C)on2)c1 (stereo not drawn) | inconclusive: 20 µM [inhibitor, single point]
